Assay results: the supplement of paper PMC8728848
The other results are listed elsewhere or left out.

Tests used:
Assay in all cases: glycan array binding signal (z-score within array); higher = stronger binding
Settings in all cases: glycan notation: IUPAC condensed, linker removed
[1] = molecular target: Neu5Ac(a2-8)Neu5Ac
Procedure, shortened: (§1)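 The Consortium for Functional Glycomics database supplied 3228 glycan arrays, of which those lacking an available protein sequence were dropped. The binding signal, a within-array Z-score, was averaged across arrays of the same protein sequence and across linkers. Negative scores can be read as non-binding.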

[2] = molecular target: Neu5Ac(a2-8)Neu5Ac(a2-3)Gal(b1-3)GalNAc(b1-4)[Neu5Ac(a2-3)]Gal(b1-4)Glc
Procedure, shortened: as §1

[3] = molecular target: Neu5Ac(a2-8)Neu5Ac(a2-3)Gal(b1-3)GalNAc(b1-4)[Neu5Ac(a2-8)Neu5Ac(a2-3)]Gal(b1-4)Glc
Procedure, shortened: as §1

[4] = molecular target: Neu5Ac(a2-8)Neu5Ac(a2-3)Gal(b1-4)Glc
Procedure, shortened: as §1

[5] = molecular target: Neu5Ac(a2-8)Neu5Ac(a2-3)Gal(b1-4)GlcNAc
Procedure, shortened: as §1

[6] = molecular target: Neu5Ac(a2-8)Neu5Ac(a2-3)[Gal(b1-3)GalNAc(b1-4)]Gal(b1-4)Glc
Procedure, shortened: as §1

[7] = molecular target: Neu5Ac(a2-8)Neu5Ac(a2-3)[GalNAc(b1-4)]Gal(b1-4)Glc
Procedure, shortened: as §1

[8] = molecular target: Neu5Ac(a2-8)Neu5Ac(a2-8)Neu5Ac
Procedure, shortened: as §1

[9] = molecular target: Neu5Ac(a2-8)Neu5Ac(a2-8)Neu5Ac(a2-3)Gal(b1-4)Glc
Procedure, shortened: as §1

[10] = molecular target: Neu5Ac(a2-8)Neu5Ac(a2-8)Neu5Ac(a2-3)[Gal(b1-3)GalNAc(b1-4)]Gal(b1-4)Glc
Procedure, shortened: as §1

[11] = molecular target: Neu5Ac(a2-8)Neu5Ac(a2-8)Neu5Ac(a2-3)[GalNAc(b1-4)]Gal(b1-4)Glc
Procedure, shortened: as §1

[12] = molecular target: Neu5Ac(a2-8)Neu5Ac(a2-8)Neu5Ac(a2-8)Neu5Ac(a2-3)[GalNAc(b1-4)]Gal(b1-4)Glc
Procedure, shortened: as §1

[13] = molecular target: Neu5Ac(a2-8)Neu5Gc(a2-3)Gal(b1-4)GlcNAc
Procedure, shortened: as §1

[14] = molecular target: Neu5Ac(b2-6)Gal(b1-4)GlcNAc
Procedure, shortened: as §1

[15] = molecular target: Neu5Ac(b2-6)GalNAc
Procedure, shortened: as §1

[16] = molecular target: Neu5Ac9Ac(a2-3)Gal(b1-3)GlcNAc
Procedure, shortened: as §1

[17] = molecular target: Neu5Ac9Ac(a2-3)Gal(b1-4)GlcNAc
Procedure, shortened: as §1

[18] = molecular target: Neu5Ac9Ac(a2-6)Gal(b1-4)GlcNAc
Procedure, shortened: as §1

[19] = molecular target: Neu5Gc(a2-3)Gal(b1-3)GlcNAc
Procedure, shortened: as §1

[20] = molecular target: Neu5Gc(a2-3)Gal(b1-3)[Fuc(a1-4)]GlcNAc
Procedure, shortened: as §1

[21] = molecular target: Neu5Gc(a2-3)Gal(b1-4)Glc
Procedure, shortened: as §1

[22] = molecular target: Neu5Gc(a2-3)Gal(b1-4)GlcNAc
Procedure, shortened: as §1

[23] = molecular target: Neu5Gc(a2-3)Gal(b1-4)GlcNAc(b1-3)Gal(b1-4)GlcNAc(b1-2)Man(a1-3)[Neu5Gc(a2-3)Gal(b1-4)GlcNAc(b1-3)Gal(b1-4)GlcNAc(b1-2)Man(a1-6)]Man(b1-4)GlcNAc(b1-4)GlcNAc
Procedure, shortened: as §1

[24] = molecular target: Neu5Gc(a2-3)Gal(b1-4)[Fuc(a1-3)]GlcNAc
Procedure, shortened: as §1

[25] = molecular target: Neu5Gc(a2-6)Gal(b1-4)GlcNAc
Procedure, shortened: as §1

[26] = molecular target: Neu5Gc(a2-6)GalNAc
Procedure, shortened: as §1

[27] = molecular target: Neu5Gc(a2-8)Neu5Ac(a2-3)Gal(b1-4)GlcNAc
Procedure, shortened: as §1

[28] = molecular target: Neu5Gc(a2-8)Neu5Gc(a2-3)Gal(b1-4)GlcNAc
Procedure, shortened: as §1

[29] = molecular target: Neu5Gc(a2-8)Neu5Gc(a2-3)Gal(b1-4)GlcNAc(b1-3)Gal(b1-4)GlcNAc
Procedure, shortened: as §1

[30] = molecular target: Neu5Gc(a2-8)Neu5Gc(a2-6)Gal(b1-4)GlcNAc
Procedure, shortened: as §1

[31] = molecular target: Neu5Gc(b2-6)Gal(b1-4)GlcNAc
Procedure, shortened: as §1

B1: AT5G17240(42) (Arabidopsis thaliana), Q6NQJ8 (protein)
chain: MDLEHQTMETFLRWAAEIGISDSIDSSRFRDSCLGHSLSVSDFPDAGGRGLGAARELKKGELVLKVPRKALMTTESIIAKDLKLSDAVNLHNSLSSTQILSVCLLYEMSKEKKSFWYPYLFHIPRDYDLLATFGNFEKQALQVEDAVWATEKATAKCQSEWKEAGSLMKELELKPKFRSFQAWLWASATISSRTLHVPWDSAGCLCPVGDLFNYDAPGDYSNTPQGPESANNVEEAGLVVETHSERLTDGGFEEDVNAYCLYARRNYQLGEQVLLCYGTYTNLELLEHYGFMLEENSNDKVFIPLETSLFSLASSWPKDSLYIHQDGKLSFALISTLRLWLIPQSQRDKSVMRLVYAGSQISVKNEILVMKWMSEKCGSVLRDLPTSVTEDTVLLHNIDKLQDPELRLEQKETEAFGSEVRAFLDANCLWDVTVLSGKPIEFSRKTSRMLSKWRWSVQWRLSYKRTLADCISYCNEKMNNLLGTQDRLRDL
glycan array binding signal (z-score) [1]: -0.265 | glycan array binding signal (z-score) [2]: 0.226 | glycan array binding signal (z-score) [3]: 0.009 | glycan array binding signal (z-score) [4]: 0.309 | glycan array binding signal (z-score) [5]: -0.397 | glycan array binding signal (z-score) [6]: -0.295 | glycan array binding signal (z-score) [7]: 0.186 | glycan array binding signal (z-score) [8]: -0.387 | glycan array binding signal (z-score) [9]: -1.04 | glycan array binding signal (z-score) [10]: -0.648 | glycan array binding signal (z-score) [11]: -0.683 | glycan array binding signal (z-score) [12]: -0.326 | glycan array binding signal (z-score) [13]: -0.142 | glycan array binding signal (z-score) [14]: -0.523 | glycan array binding signal (z-score) [15]: 0.006 | glycan array binding signal (z-score) [16]: -0.271 | glycan array binding signal (z-score) [17]: -0.486 | glycan array binding signal (z-score) [18]: -0.046 | glycan array binding signal (z-score) [19]: -0.009 | glycan array binding signal (z-score) [20]: -0.907 | glycan array binding signal (z-score) [21]: 0.078 | glycan array binding signal (z-score) [22]: -0.479 | glycan array binding signal (z-score) [23]: -0.326 | glycan array binding signal (z-score) [24]: -0.299 | glycan array binding signal (z-score) [25]: 0.865 | glycan array binding signal (z-score) [26]: -0.395 | glycan array binding signal (z-score) [27]: -0.804 | glycan array binding signal (z-score) [28]: -0.313 | glycan array binding signal (z-score) [29]: -0.317 | glycan array binding signal (z-score) [30]: 0.146 | glycan array binding signal (z-score) [31]: 0.103
